This note sets out measurements from article PMC6235831.

By UniProt entry, the sequences of proteins in these tests, tags left out. Residues count along the entry.
UniProt Q9R0N7: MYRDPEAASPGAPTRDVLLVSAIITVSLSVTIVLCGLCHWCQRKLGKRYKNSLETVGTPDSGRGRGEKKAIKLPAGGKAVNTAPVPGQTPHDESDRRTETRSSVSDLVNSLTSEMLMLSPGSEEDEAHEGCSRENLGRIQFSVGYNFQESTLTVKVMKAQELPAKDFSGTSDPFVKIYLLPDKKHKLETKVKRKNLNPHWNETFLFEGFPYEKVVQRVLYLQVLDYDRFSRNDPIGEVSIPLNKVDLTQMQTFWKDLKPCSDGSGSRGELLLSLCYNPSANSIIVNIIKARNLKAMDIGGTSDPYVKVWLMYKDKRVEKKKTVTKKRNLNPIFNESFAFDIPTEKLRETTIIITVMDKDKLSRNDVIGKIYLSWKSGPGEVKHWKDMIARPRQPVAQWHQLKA
UniProt P12023, residues 18-770: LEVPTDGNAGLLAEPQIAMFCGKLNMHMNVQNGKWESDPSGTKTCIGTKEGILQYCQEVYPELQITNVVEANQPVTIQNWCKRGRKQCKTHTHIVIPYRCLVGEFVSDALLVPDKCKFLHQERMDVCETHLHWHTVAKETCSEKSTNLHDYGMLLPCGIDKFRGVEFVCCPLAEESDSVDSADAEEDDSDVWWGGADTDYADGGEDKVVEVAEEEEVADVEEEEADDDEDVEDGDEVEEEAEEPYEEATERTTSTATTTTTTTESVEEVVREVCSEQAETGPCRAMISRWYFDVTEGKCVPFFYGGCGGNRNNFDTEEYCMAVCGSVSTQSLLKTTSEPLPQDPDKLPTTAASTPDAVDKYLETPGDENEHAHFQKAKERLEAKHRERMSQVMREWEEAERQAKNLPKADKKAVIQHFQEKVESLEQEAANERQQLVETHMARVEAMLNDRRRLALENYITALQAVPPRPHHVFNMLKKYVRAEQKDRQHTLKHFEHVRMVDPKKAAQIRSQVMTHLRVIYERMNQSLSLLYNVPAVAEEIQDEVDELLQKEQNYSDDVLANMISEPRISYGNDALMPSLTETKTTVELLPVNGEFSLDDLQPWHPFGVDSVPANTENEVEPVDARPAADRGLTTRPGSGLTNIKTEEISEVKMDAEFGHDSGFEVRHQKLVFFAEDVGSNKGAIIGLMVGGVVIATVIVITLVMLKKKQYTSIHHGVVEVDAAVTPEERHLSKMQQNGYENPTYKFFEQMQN
UniProt Q62747: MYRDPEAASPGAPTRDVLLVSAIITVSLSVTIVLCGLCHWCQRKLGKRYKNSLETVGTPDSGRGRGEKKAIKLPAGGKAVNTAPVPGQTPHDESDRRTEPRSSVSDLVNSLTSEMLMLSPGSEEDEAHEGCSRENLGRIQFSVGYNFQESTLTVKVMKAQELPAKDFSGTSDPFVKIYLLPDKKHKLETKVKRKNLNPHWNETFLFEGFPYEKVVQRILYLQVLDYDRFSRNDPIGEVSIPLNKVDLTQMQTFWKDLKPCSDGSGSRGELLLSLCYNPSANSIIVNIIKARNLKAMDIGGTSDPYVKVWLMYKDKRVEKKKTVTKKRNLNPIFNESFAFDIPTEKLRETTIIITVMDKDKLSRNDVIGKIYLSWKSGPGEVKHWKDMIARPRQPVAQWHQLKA
UniProt P08592, residues 18-770: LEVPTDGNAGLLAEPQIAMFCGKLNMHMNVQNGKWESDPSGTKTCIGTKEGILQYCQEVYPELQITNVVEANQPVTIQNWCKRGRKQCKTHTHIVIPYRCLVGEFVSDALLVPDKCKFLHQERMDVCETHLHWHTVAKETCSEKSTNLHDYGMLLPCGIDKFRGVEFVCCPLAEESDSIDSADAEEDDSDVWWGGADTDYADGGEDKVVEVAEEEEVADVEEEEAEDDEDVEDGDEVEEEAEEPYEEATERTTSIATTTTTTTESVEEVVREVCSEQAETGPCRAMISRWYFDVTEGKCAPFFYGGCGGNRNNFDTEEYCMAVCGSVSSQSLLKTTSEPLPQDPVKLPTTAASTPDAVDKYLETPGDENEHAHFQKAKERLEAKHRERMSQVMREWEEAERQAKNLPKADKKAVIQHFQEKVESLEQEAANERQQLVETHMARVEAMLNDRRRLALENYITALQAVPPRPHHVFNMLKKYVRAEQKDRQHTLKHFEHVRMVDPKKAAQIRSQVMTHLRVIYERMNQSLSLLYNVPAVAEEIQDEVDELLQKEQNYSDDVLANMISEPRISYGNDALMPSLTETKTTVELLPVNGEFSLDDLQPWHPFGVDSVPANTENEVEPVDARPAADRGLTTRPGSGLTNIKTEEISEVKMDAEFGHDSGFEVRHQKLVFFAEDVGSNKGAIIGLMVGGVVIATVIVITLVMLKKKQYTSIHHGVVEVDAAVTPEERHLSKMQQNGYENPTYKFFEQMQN

No constants are given. Whether binding was seen depends on the method and setting. In cells and extracts the contact can be indirect. Some results given as binding are weak or reduced against the parent protein; the word gives no strength.

Assay [1] has as its target synaptotagmin-7 (mouse (endogenous in adult brain synaptosomes)) (UniProt Q9R0N7). Briefly: co-IP; synaptosomal fraction from whole brains of adult mice, resuspended in lysis buffer; IP of Syt7 or IP of APP, western blot; control: beads + immuno-precipitating antibody without sample. In general terms: A western blot detects proteins with antibodies after separation by electrophoresis.

Assay [2] concerns the target amyloid precursor protein, full length (mouse (endogenous in adult brain synaptosomes)) (UniProt P12023). Described as above.
Assay [3] addresses synaptotagmin-7 (not stated (rat neuronal cultures are named for the GSI treatment in p-0014; cultures from mice were also used)) (UniProt Q62747). Briefly: co-IP; lysates of cultured cortical neurons (50 mM Hepes pH 7.4, 100 mM NaCl, 10% glycerol, 0.5% DDM), 600-1000 µg lysate; IP with an antibody against Syt7, magnetic beads, western blot with Y188; neurons treated or not with GSI (L685,458) from 10 to 14 DIV and with or without 30 mM KCl for 15 min before lysis (Syt7/CTFs interaction decreased by KCl).

Take “amyloid precursor protein, full length (from UniProt P12023 18-770)”: the binding result in assay [1] was “binds”.

“synaptotagmin-7 (from UniProt Q9R0N7 1-403)”: the binding entry in assay [2] was “binds”.

For the substance “amyloid precursor protein, full length (from UniProt P08592 18-770)”, the binding entry in assay [3] was “binds”.
